Reference: PubChem BioAssay AID1439 (NMMLSC, 2008)
Hit rate of the full screen: of about 220,000 compounds, about 770 (0.35%) were called active. The shares of active, inactive and inconclusive entries below differ from those in the screen. No stated cut-off is given here; in the data, active means binding response below about 49% or above about 150%; inconclusive means no clear call, values can overlap the other calls; inactive means in between.

Protein sequences, listed by entry. Tags and fused reporters are not part of them.
UniProt P09471, whole entry, looked up: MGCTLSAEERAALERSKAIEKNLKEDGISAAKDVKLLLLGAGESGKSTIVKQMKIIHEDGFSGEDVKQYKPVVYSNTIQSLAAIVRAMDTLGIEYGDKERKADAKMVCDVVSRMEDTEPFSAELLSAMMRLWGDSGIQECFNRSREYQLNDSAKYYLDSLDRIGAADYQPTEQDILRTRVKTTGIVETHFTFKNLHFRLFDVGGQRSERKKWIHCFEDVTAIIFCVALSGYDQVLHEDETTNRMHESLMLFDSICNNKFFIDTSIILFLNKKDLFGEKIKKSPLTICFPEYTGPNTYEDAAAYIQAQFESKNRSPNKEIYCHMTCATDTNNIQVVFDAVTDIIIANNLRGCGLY

Biological target: Guanine nucleotide-binding protein G(o) subunit alpha (Homo sapiens) (UniProt P09471)
Assay: RGS7-Galphao binding modulators, primary screen, biochemical, multiplexed bead flow cytometry (AID 1439);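 further: fluorescent Galphao held in activated GDP-AlF4 state binding bead-coupled RGS7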
Settings: at 10 µM, actives lie on both sides

Structure (SMILES) | binding response (% of control)
O=C(CCc1ccc(S(=O)(=O)N2CCOCC2)cc1)Nc1ccc2c(c1)OCCO2 | inconclusive: 567%
Cc1ccc(Cl)cc1N=C(N)N=C(N)N | inconclusive: 86.8%
Cc1ccc2nc(NC(=O)c3ccc(Cl)s3)sc2c1 | inactive: 103%
Cc1ccc2[nH]c(=O)c(C(c3nnnn3CC3CCCO3)N3CCCc4ccccc43)cc2c1 (stereo not given) | inactive: 105%
O=C(NC(Cc1c[nH]c2ccccc12)C(=O)O)/C(=C/c1ccco1)NC(=O)c1ccccc1 (stereo not given) | inconclusive: 99.5%
Cn1nnc(NC(=S)NC(=O)c2cc3ccccc3o2)n1 | inconclusive: 90.3%
Cc1cc(O)c(-c2cc(C(=O)Nc3sc4c(c3C(=O)NCc3ccco3)CCC4)[nH]n2)cc1C | inconclusive: 69.3%
Cc1nn(-c2ccccc2)c(C)c1C(=O)Oc1ccccc1 | inconclusive: 101%
OC(CNCCc1ccc(Cl)cc1)COc1ccc2ccccc2c1 (stereo not given) | inconclusive: 64.1%
O=C(CN1CCN(C/C=C/c2ccccc2)CC1)NCc1ccc(Cl)cc1 | inconclusive: 107%
COC(=O)N/N=C/c1cc(Cl)c(OCc2ccccc2F)c(OC)c1 | inconclusive: 116%
CN(C)/C=N/NC(=O)c1ccc(Cl)cc1 | inconclusive: 85.8%
NC(=S)N/N=C/c1ncc(C(F)(F)F)cc1Cl | inconclusive: 322%
COc1ccccc1NC(=O)Nc1cc(C(C)(C)C)nn1C | inconclusive: 79.3%
C(=Nc1cccc2c(N=Cc3ccco3)cccc12)c1ccco1 | inconclusive: 91%
CC(C)OP(=O)(c1ccc(N(C)C)cc1)C(O)c1ccccc1 (stereo not given) | inactive: 91.1%
Cc1ccc(NC(=O)CSc2ccc(-c3ccccn3)nn2)cc1 | inconclusive: 99.8%
CCc1ccc(/C=N/NC(=O)c2ccccn2)cc1 | inconclusive: 92.4%
Cc1ccc(Cn2ccc(NC(=O)c3cc(C4CC4)on3)n2)cc1 | inconclusive: 113%
C/C=C(\CS(=O)(=O)c1ccccc1)S(=O)(=O)c1ccccc1 | inactive: 101%
Cc1cc(SCC(=O)N(C)C2CCS(=O)(=O)C2)nc2c(C)cccc12 (stereo not given) | inactive: 97.4%
COc1cccc2cc(-c3ccnc(N)n3)oc12 | inconclusive: 116%
O=C(c1ccc(C(=O)N2CCN(c3ccccc3F)CC2)nc1)N1CCN(c2ccccc2F)CC1 | inconclusive: 130%

Looked up above:
binding response (% of control) with O=C(c1ccc(C(=O)N2CCN(c3ccccc3F)CC2)nc1)N1CCN(c2ccccc2F)CC1 reads inconclusive: 130%
binding response (% of control) with CCc1ccc(/C=N/NC(=O)c2ccccn2)cc1 reads inconclusive: 92.4%
binding response (% of control) with Cc1ccc2[nH]c(=O)c(C(c3nnnn3CC3CCCO3)N3CCCc4ccccc43)cc2c1 (stereo not given) reads inactive: 105%

Reformatted tab-delimited: entries from further up.
Structure (SMILES)	binding response (% of control)
CCc1ccc(/C=N/NC(=O)c2ccccn2)cc1	inconclusive: 92.4%
Cc1ccc(Cn2ccc(NC(=O)c3cc(C4CC4)on3)n2)cc1	inconclusive: 113%

Further entries.

Structure (SMILES) | binding response (% of control)
Cc1cc(N)n(Cc2cccs2)n1 | inactive: 77.4%
COc1cc2c(cc1NC(=O)c1cccc(Br)c1)CCCC2 | inactive: 97.6%
O=C1CCN(C(=S)NCc2ccccc2)CC1 | inconclusive: 73.4%
O=C(Cc1ccccc1)Nc1cc(Cl)ccc1Sc1ccccc1 | inactive: 98.8%
CN(C)S(=O)(=O)c1ccc(NC(=O)N2CCOCC2)cc1 | inconclusive: 106%
CCN(CC)C(=O)CC(c1ccc2c(c1)OCO2)c1c(OC)cc(OC)c2ccc(=O)oc12 (stereo not given) | inconclusive: 110%
COC(=O)N=Nc1c(O)n(Cc2ccccc2)c2ccccc12 | inconclusive: 114%
C/C(=C\c1ccccc1)C(=O)Nc1ccc(S(=O)(=O)Nc2ncccn2)cc1 | inactive: 101%
CC(C)c1cc(CNC(=O)CCc2nnc(CCCCc3ccccc3)o2)on1 | inconclusive: 51.9%
CC(C)(C)C(=O)Nc1nc2cc3c(cc2s1)OCO3 | inconclusive: -75%
O=C(COC(=O)Cc1ccc(-c2ccccc2)cc1)NCc1ccccc1 | inactive: 99.3%
O=C(O)c1ccc(NC2=C(n3nnc4ccccc43)C(=O)c3ccccc3C2=O)cc1 | inconclusive: 133%
CN(C)c1ccc(/C=N/N2CCN(c3ccccn3)CC2)cc1 | inconclusive: -332%
Nc1nc(SCC(=O)Nc2ccc(Cl)cc2)[nH]c(=O)c1-c1ccccc1 | inactive: 102%
CCOc1ccc(NC(=O)c2c[nH]n3c(=O)cc(C4CCN(C(=O)OC(C)(C)C)CC4)nc23)cc1 | inconclusive: 89.1%
COc1cc(C2c3sc(=O)[nH]c3SC3C(=O)N(c4ccc(Br)cc4)C(=O)C32)ccc1O (stereo not given) | inconclusive: 123%
CCc1ccc(-c2cn(C3CCCCC3)c(=S)[nH]2)cc1 | inactive: 104%
O=[N+]([O-])c1c(NCc2ccco2)ccc2nonc12 | inconclusive: 73.5%
C#CCOCCOCCOCCNc1nc(N2CCN(C(=O)[C@H](CCCCN)n3cc(C(N)CO)nn3)CC2)nc(N2CCN(C(=O)[C@H](CCC(=O)O)n3cc(C(N)Cc4ccc(O)cc4)nn3)CC2)n1 (stereo not given in full) | inconclusive: 86%
O=C(c1ccc(F)cc1)C(CCCCCC(CN1CCOCC1)C(=O)c1ccc(F)cc1)CN1CCOCC1 (stereo not given) | inactive: 140%
CC(=O)NCCCc1nc2ccccc2n1Cc1c(F)cccc1Cl | inconclusive: 201%
O=C(NC(=S)Nc1ccccc1N1CCCC1)c1ccco1 | inconclusive: 26%
Cc1ccc(-c2c(C(=O)NNC(=S)NCC3CCCO3)csc2C)cc1 (stereo not given) | inconclusive: 110%

Structure (SMILES) | binding response (% of control)
NS(=O)(=O)c1ccc(Sc2nc3ccccc3s2)c([N+](=O)[O-])c1 | inconclusive: 101%
Cc1cc(N(C)/N=C/c2ccccc2)nc(-c2ccccc2O)n1 | inactive: 101%
O=c1[nH]c2ccccc2[nH]c1=O | inconclusive: 110%
Cn1c(=NC(=O)C(C)(C)C)sc2cccc(F)c21 | inconclusive: 235%
O=C(Nc1ccccc1C(=O)N1CCOCC1)c1ccncc1 | inactive: 103%
Cc1cc(=O)[nH]c(SCC(=O)NC(c2ccccc2)c2ccccc2)n1 | inconclusive: 130%
Cc1cccc(OCc2nnc(SCC(=O)N3c4ccccc4CCc4ccccc43)o2)c1 | inconclusive: 60.2%
CC1=C(C(=O)OCc2ccccc2)C(c2ccsc2)C(C#N)=C(N)O1 (stereo not given) | inactive: 93.5%
O=C(NCc1nc(-c2ccc(C(F)(F)F)cc2)no1)Nc1ccc(OC(F)(F)F)cc1 | inconclusive: 88.4%
Cc1cc(C(=O)N2CCN(c3ccc(C(F)(F)F)cn3)CC2)c(C)o1 | inconclusive: 67.9%
CC1CC(C)CN(S(=O)(=O)c2ccc(C(C)(C)C)cc2)C1 (stereo not given) | inconclusive: 146%
O=C(CN1C(=O)NC(Cc2c[nH]c3ccccc23)C1=O)Nc1cccc(S(=O)(=O)N2CCOCC2)c1 (stereo not given) | inconclusive: 118%
O=C(Nc1ccccc1C(=O)N1CCOCC1)c1ccc([N+](=O)[O-])cc1 | inconclusive: 99.1%
CCn1c(C)nc2cc(C(=O)NNS(=O)(=O)c3cc(Br)ccc3Br)ccc21 | inconclusive: 306%
N=C1C(c2nc(-c3cccc([N+](=O)[O-])c3)cs2)=C(O)CN1NC(=O)c1ccco1 | inconclusive: 80.8%
COCCCNCC(O)C(F)(F)F (stereo not given) | inactive: 95.2%
Cc1ccc(N=C2NC(=O)/C(=C/c3cccn3C)S2)cc1 | inconclusive: 82.3%
CCOC(=O)c1ccc(N=c2sc(C(=O)OC)cc(=O)n2CCCN2CCOCC2)cc1 | inconclusive: 156%
Cn1c(CC2Sc3ccccc3NC2=O)nnc1SCC(=O)c1ccc(Cl)cc1 (stereo not given) | inconclusive: -44.6%
Cc1c(S(=O)(=O)c2ccccn2)c(N)n(Cc2ccccc2Cl)c1C | inconclusive: 101%
CCN(CCS(=O)(=O)c1ccc(Cl)cc1)C(=O)Nc1ccccc1 | inconclusive: 83.5%
N=C(N)SCc1ccc(O)c([N+](=O)[O-])c1 | inconclusive: 103%
COc1ccc(C(=S)N2CCN(c3ccccc3Cl)CC2)cc1OC | inconclusive: 285%

Structure (SMILES) | binding response (% of control)
CCC(=O)N1CCC2(CC1)Oc1ccc(F)cc1C(=O)C21CC(c2cccnc2)=NO1 (stereo not given) | inconclusive: 51.4%
C/C(=N\Nc1ccccc1[N+](=O)[O-])c1ccc(N2CCOCC2)cc1 | inconclusive: 89.8%
CNC(=S)N(Cc1ccc(Cl)cc1)Cc1cccs1 | inconclusive: 54.8%
Cn1cnc(S(=O)(=O)Nc2ccccc2C(=O)NCC2CC2)c1 | inconclusive: 152%
Cc1c(-n2c(O)c(C3=c4ccccc4=NC3=O)sc2=O)c(=O)n(-c2ccccc2)n1C | inconclusive: 80.6%
O=C(CC1NCCNC1=O)Nc1ccc([N+](=O)[O-])cc1 (stereo not given) | inconclusive: 89.5%
CN1C(=O)/C(=C2\SC(=S)N(CCCCCC(=O)O)C2=O)c2ccccc21 | inconclusive: 74.4%
Cc1ccnc2nc(C(=O)Nc3nccs3)nn12 | inactive: 102%
CCS(=O)(=O)N1CCN(c2ccccc2)CC1 | inconclusive: 93%
COc1ccc(S(=O)(=O)N(C)C)cc1NCC(=O)Nc1cccc(C#N)c1 | inactive: 102%
O=C(c1n[nH]c(=O)c2ccccc12)N1CCN(Cc2ccc3c(c2)OCO3)CC1 | inconclusive: 104%
O=C(O)CSc1nc2ccccc2o1 | inactive: 98.2%
O=c1c2c3nc4ccccc4nc3n(/N=C/c3ccncc3)c2ncn1-c1ccccc1 | inconclusive: 79.7%
COc1ccc(/C=N/Nc2nc(N)cc(Cl)n2)cc1OC | inactive: 100%
Cc1csc(/C(=N/OC(=O)c2ccco2)C(N)=O)n1 | inconclusive: 119%
O=C(COc1ccc(Cl)cc1Cl)OCC(=O)N1CCCc2ccccc21 | inactive: 107%
O=c1cc(O)c2sc(Nc3ccc(Cl)c(F)c3)nc2[nH]1 | inconclusive: 90.7%
NC(N)=Nc1nc2ccc([N+](=O)[O-])cc2[nH]1 | inconclusive: 464%
CCOC(=O)CCCC(=O)N1CCOCCOCCOCC1 | inconclusive: -3.34%
COc1cc(C2CC(=O)N(CC(=O)NCC3CCCO3)c3ccccc3S2)cc(OC)c1OC (stereo not given) | inactive: 97.1%
S=c1nc(-c2ccccc2)[nH]c2ccc(Br)cc12 | inconclusive: 105%
